PubChem BioAssay AID1224830 – NIAID – 2016

Screen: 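Regulators of TLR4 signalling towards TNF-alpha in macrophage-like cells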 (primary screen)
System: human THP-1 monocytic leukaemia cells, TNF dual-luciferase reporter clone, PMA-differentiated to macrophage-like cells
Knock-down reagent: siRNA pool against human genes, 50 nM
Time to read-out: LPS for 4 h, given about 3 days after siRNA transfection
Challenge: bacterial LPS (TLR4 ligand), 10 ng/ml
Read-out: 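TNF firefly reporter luminescence divided by renilla, normalised to the plate median, then turned into a robust z-score for each replicate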
Reading the numbers: TNF reporter robust z-score: higher = stronger TNF reporter response to LPS
Call rule: 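Each well counts as active if its z-score is over 2.8 or under -1.5; controls are left without a call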
In all, the deposit lists about 18,000 reagents; below is an unselected part. About 2,900 of all reagents (16%) were called active. 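Calls are made per well; low scores hint the gene aids the LPS response, high scores that it dampens it.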 Entries without a mark were called inactive. Repeated entries: four replicate wells of each siRNA pool.

| gene | TNF reporter robust z-score |
| --- | --- |
| OR5D16 (olfactory receptor family 5 subfamily D member 16) | -0.67 |
| OR5D16 (olfactory receptor family 5 subfamily D member 16) | -1.39 |
| OR5D16 (olfactory receptor family 5 subfamily D member 16) | -1.01 |
| OR5D16 (olfactory receptor family 5 subfamily D member 16) | -0.54 |
| CSTF2 (cleavage stimulation factor subunit 2) | 0.15 |
| CSTF2 (cleavage stimulation factor subunit 2) | -0.42 |
| CSTF2 (cleavage stimulation factor subunit 2) | 0.13 |
| CSTF2 (cleavage stimulation factor subunit 2) | 0.61 |
| SMG7 (SMG7 nonsense mediated mRNA decay factor) | 1.68 |
| SMG7 (SMG7 nonsense mediated mRNA decay factor) | 1.42 |
| SMG7 (SMG7 nonsense mediated mRNA decay factor) | 2.46 |
| SMG7 (SMG7 nonsense mediated mRNA decay factor) | 4.35 (active) |
| ZNF410 (zinc finger protein 410) | -1.1 |
| ZNF410 (zinc finger protein 410) | -1.03 |
| ZNF410 (zinc finger protein 410) | -0.26 |
| ZNF410 (zinc finger protein 410) | 0.52 |
| YME1L1 (YME1 like 1 ATPase) | 0.34 |
| YME1L1 (YME1 like 1 ATPase) | 0.72 |
| YME1L1 (YME1 like 1 ATPase) | 0.23 |
| YME1L1 (YME1 like 1 ATPase) | -0.1 |
| ANXA8L1 (annexin A8 like 1) | -1.22 |
| ANXA8L1 (annexin A8 like 1) | 0.58 |
| ANXA8L1 (annexin A8 like 1) | -1.24 |
| ANXA8L1 (annexin A8 like 1) | -1.07 |
| IFITM5 (interferon induced transmembrane protein 5) | -0.67 |
| IFITM5 (interferon induced transmembrane protein 5) | 1.72 |
| IFITM5 (interferon induced transmembrane protein 5) | 1.43 |
| IFITM5 (interferon induced transmembrane protein 5) | -0.06 |
| DZIP3 (DAZ interacting zinc finger protein 3) | -0.15 |
| DZIP3 (DAZ interacting zinc finger protein 3) | -0.93 |
| DZIP3 (DAZ interacting zinc finger protein 3) | 2.8 (active) |
| DZIP3 (DAZ interacting zinc finger protein 3) | 0.75 |
| PALMD (palmdelphin) | -0.91 |
| PALMD (palmdelphin) | 0.4 |
| PALMD (palmdelphin) | 0.14 |
| PALMD (palmdelphin) | 0.84 |
| ST8SIA6 (ST8 alpha-N-acetyl-neuraminide alpha-2,8-sialyltransferase 6) | 0.17 |
| ST8SIA6 (ST8 alpha-N-acetyl-neuraminide alpha-2,8-sialyltransferase 6) | 0.37 |
| ST8SIA6 (ST8 alpha-N-acetyl-neuraminide alpha-2,8-sialyltransferase 6) | 0.59 |
| ST8SIA6 (ST8 alpha-N-acetyl-neuraminide alpha-2,8-sialyltransferase 6) | 2.96 (active) |
| OCIAD1 (OCIA domain containing 1) | -0.56 |
| OCIAD1 (OCIA domain containing 1) | -0.99 |
| OCIAD1 (OCIA domain containing 1) | -0.9 |
| OCIAD1 (OCIA domain containing 1) | 0.65 |
| FAM174B (family with sequence similarity 174 member B) | -0.02 |
| FAM174B (family with sequence similarity 174 member B) | 0.2 |
| FAM174B (family with sequence similarity 174 member B) | 0.34 |
| FAM174B (family with sequence similarity 174 member B) | -0.22 |
